{"source": "PubChem BioAssay AID493246 (Drosophila RNAi Screening Center, 2011)", "aim": "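Genome-wide search for dsRNAs that reduce cell number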 (primary screen)", "cells": "Drosophila Kc and S2R+ cells", "reagents": "long dsRNA against Drosophila genes", "detection": "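Cell number per well after knock-down, printed as raw plate values; calls were based on per-plate z-scores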", "scale": "Kc cell number and S2R+ cell number: higher = more cells remaining", "call rule": "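Active when the per-plate z-score of cell number is 3 or more in the direction of fewer cells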", "note": "The screen tested about 21,000 reagents; this is an unselected part of those with a known target gene and a result. Over the whole deposit, 429 (2%) were called active. 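Values are raw and not normalised between plates; calls rest on per-plate z-scores that were not deposited.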 A plus sign joins genes that one reagent is predicted to hit. The record does not give: the amount of reagent, the time to read-out."}
{"gene":"CG15536","DRSC id":"DRSC15072","Kc cell number, rep 1":1.39e6,"Kc cell number, rep 2":1.59e6,"S2R+ cell number, rep 1":1.05e6,"S2R+ cell number, rep 2":1.15e6,"outcome":"inactive"}
{"gene":"CG34040","DRSC id":"DRSC03902","Kc cell number, rep 1":5.05e5,"S2R+ cell number, rep 1":8.03e5,"outcome":"inactive"}
{"gene":"CG14567","DRSC id":"DRSC11728","Kc cell number, rep 1":1.33e6,"Kc cell number, rep 2":1.51e6,"S2R+ cell number, rep 1":1.25e6,"S2R+ cell number, rep 2":1.32e6,"outcome":"inactive"}
{"gene":"CG15169","DRSC id":"DRSC02470","Kc cell number, rep 1":1.48e6,"Kc cell number, rep 2":1.60e6,"S2R+ cell number, rep 1":1.28e6,"S2R+ cell number, rep 2":3.22e5,"outcome":"inactive"}
{"gene":"CG18507","DRSC id":"DRSC01334","Kc cell number, rep 1":1.55e6,"Kc cell number, rep 2":1.58e6,"S2R+ cell number, rep 1":1.12e6,"S2R+ cell number, rep 2":1.24e6,"outcome":"inactive"}
{"gene":"CG18507","DRSC id":"DRSC01914","Kc cell number, rep 1":1.85e6,"Kc cell number, rep 2":1.84e6,"S2R+ cell number, rep 1":1.44e6,"S2R+ cell number, rep 2":1.57e6,"outcome":"inactive"}
{"gene":"CG4820","DRSC id":"DRSC15654","Kc cell number, rep 1":1.46e6,"Kc cell number, rep 2":1.48e6,"S2R+ cell number, rep 1":1.20e6,"S2R+ cell number, rep 2":1.31e6,"outcome":"inactive"}
{"gene":"HmgZ (HMG protein Z)","DRSC id":"DRSC03888","Kc cell number, rep 1":5.97e5,"S2R+ cell number, rep 1":8.94e5,"outcome":"inactive"}
{"gene":"HmgZ (HMG protein Z)","DRSC id":"DRSC04620","Kc cell number, rep 1":1.79e6,"Kc cell number, rep 2":1.80e6,"S2R+ cell number, rep 1":1.19e6,"S2R+ cell number, rep 2":2.55e5,"outcome":"inactive"}
{"gene":"Cht11 (Chitinase 11)","DRSC id":"DRSC18270","Kc cell number, rep 1":1.41e6,"Kc cell number, rep 2":1.47e6,"S2R+ cell number, rep 1":9.89e5,"S2R+ cell number, rep 2":1.15e6,"outcome":"inactive"}
{"gene":"CG33543","DRSC id":"DRSC00384","Kc cell number, rep 1":1.43e6,"Kc cell number, rep 2":1.50e6,"S2R+ cell number, rep 1":1.02e6,"S2R+ cell number, rep 2":1.24e6,"outcome":"inactive"}
{"gene":"CG33543","DRSC id":"DRSC00385","Kc cell number, rep 1":1.45e6,"Kc cell number, rep 2":1.53e6,"S2R+ cell number, rep 1":1.06e6,"S2R+ cell number, rep 2":1.21e6,"outcome":"inactive"}
{"gene":"pes (peste)","DRSC id":"DRSC03033","Kc cell number, rep 1":1.43e6,"Kc cell number, rep 2":1.52e6,"S2R+ cell number, rep 1":1.16e6,"S2R+ cell number, rep 2":1.26e6,"outcome":"inactive"}
{"gene":"CG14298","DRSC id":"DRSC14777","Kc cell number, rep 1":1.41e6,"Kc cell number, rep 2":1.55e6,"S2R+ cell number, rep 1":9.75e5,"S2R+ cell number, rep 2":1.01e6,"outcome":"inactive"}
{"gene":"l(3)mbn (lethal (3) malignant blood neoplasm)","DRSC id":"DRSC08793","Kc cell number, rep 1":1.75e6,"Kc cell number, rep 2":1.64e6,"S2R+ cell number, rep 1":1.07e6,"S2R+ cell number, rep 2":1.25e6,"outcome":"inactive"}
{"gene":"Cad96Ca (Cadherin 96Ca)","DRSC id":"DRSC14220","Kc cell number, rep 1":1.51e6,"Kc cell number, rep 2":1.43e6,"S2R+ cell number, rep 1":9.57e5,"S2R+ cell number, rep 2":1.07e6,"outcome":"inactive"}
{"gene":"Cad96Ca (Cadherin 96Ca)","DRSC id":"DRSC16693","Kc cell number, rep 1":1.48e6,"Kc cell number, rep 2":1.43e6,"S2R+ cell number, rep 1":1.01e6,"S2R+ cell number, rep 2":1.07e6,"outcome":"inactive"}
{"gene":"eIF3d2 (eukaryotic translation initiation factor 3 subunit d2)","DRSC id":"DRSC15651","Kc cell number, rep 1":1.90e6,"Kc cell number, rep 2":1.95e6,"S2R+ cell number, rep 1":1.32e6,"S2R+ cell number, rep 2":1.43e6,"outcome":"inactive"}
{"gene":"CG33630","DRSC id":"DRSC14546","Kc cell number, rep 1":1.53e6,"Kc cell number, rep 2":1.47e6,"S2R+ cell number, rep 1":1.20e6,"S2R+ cell number, rep 2":1.30e6,"outcome":"inactive"}
{"gene":"CG44001 + CG33995","DRSC id":"DRSC00853","Kc cell number, rep 1":1.53e6,"Kc cell number, rep 2":1.54e6,"S2R+ cell number, rep 1":1.11e6,"S2R+ cell number, rep 2":1.26e6,"outcome":"inactive"}
{"gene":"CG44001 + CG33995","DRSC id":"DRSC02898","Kc cell number, rep 1":1.36e6,"Kc cell number, rep 2":1.60e6,"S2R+ cell number, rep 1":3.54e5,"S2R+ cell number, rep 2":1.49e5,"outcome":"inactive"}

Already shown: entries from further up.
{"gene":"Cad96Ca (Cadherin 96Ca)","DRSC id":"DRSC14220","Kc cell number, rep 1":1.51e6,"Kc cell number, rep 2":1.43e6,"S2R+ cell number, rep 1":9.57e5,"S2R+ cell number, rep 2":1.07e6,"outcome":"inactive"}
{"gene":"Cad96Ca (Cadherin 96Ca)","DRSC id":"DRSC16693","Kc cell number, rep 1":1.48e6,"Kc cell number, rep 2":1.43e6,"S2R+ cell number, rep 1":1.01e6,"S2R+ cell number, rep 2":1.07e6,"outcome":"inactive"}
